The values below come from paper doi:10.1101/2021.10.11.463801.

Residue numbers refer to the chain shown, from its start. Numbers in names are those of the source. Read-outs that look alike come from different tables or passages of the source. No constants are given. Whether binding was seen depends on the method and setting. For some assays here: A result given as binding can be weak or reduced; the word gives no strength. For some assays here: Where a sequence is shown, tags or fusion partners need not be part of it.

For assay [1], the target named is T1, MBP-tagged JIP3[1-108] (human) (UniProt Q9UPT6).
T1 sequence: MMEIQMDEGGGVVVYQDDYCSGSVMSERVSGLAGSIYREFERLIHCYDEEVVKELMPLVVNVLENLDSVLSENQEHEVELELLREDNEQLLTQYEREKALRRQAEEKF
Description: pull-down.

Assay [2] concerns the target T1, MBP-tagged JIP3[1-108] (human). Description: pull-down. This is another data set of the same source.
Assay [3] concerns the target GST-tagged DLIC1[388-523] (human). Kind of assay: pull-down.
The target in assay [4] is GST::KIF5C[807-956] (mouse). Description: pull-down.
Assay [5] has as its target DLIC1[388-523] F447A/F448A (human). Description: ITC. For orientation: ITC needs no label: the signal is the heat of the interaction.
Assay [6] addresses DLIC1[388-523] (human). Description: SEC.
Assay [7] has as its target GST::KIF5C[807-956] (mouse). Description: SEC.
For assay [8], the target named is DLIC1[388-523] (human). Kind of assay: ITC.
Assay [9] deals with UNC-116[675-815] (C. elegans). Description: pull-down.
The target of assay [10] is GST::DLI-1[369-442] (C. elegans). Kind of assay: pull-down.

“GST::KIF5C[807-956] (mouse) (domain or fragment)”: the binding entry in assay [1] and in assay [2] was “binds” in each case.

As to “DLIC1[388-523] (human) (domain or fragment)”, the binding entry in assay [1] and in assay [2] was “binds” in each case.

B1: JIP3[1-108] (domain or fragment, UniProt Q9UPT6-1 1-108)
chain: T1 sequence
B1: the binding entry in assay [3] is given as “binds”; in assay [4], “binds”; in assay [5], “no binding”; in the assay with DLIC1[388-523] (human) [6], “binds”; in assay [7] it was “binds”.

B2: JIP3[1-108] V60Q (domain or fragment, UniProt Q9UPT6-1 1-108)
chain: T1 sequence with V60Q
Take B2: the binding result in assay [3] is given as “no binding”; in assay [4], “binds”; with DLIC1[388-523] (human) [8] it was “no binding”; with DLIC1[388-523] (human) [6] it was “no binding”; in assay [7] it was “binds”.

B3: JIP4[1-103] (domain or fragment, UniProt O60271-1 1-103)
chain: MELEDGVVYQEEPGGSGAVMSERVSGLAGSIYREFERLIGRYDEEVVKELMPLVVAVLENLDSVFAQDQEHQVELELLRDDNEQLITQYEREKALRKHAEEKF
For B3, the binding result in [5] is on record as “no binding”.

B4: JIP4[1-103] V55Q (domain or fragment, UniProt O60271-1 1-103)
chain: B3 chain with V55Q
As to B4, the binding result with DLIC1[388-523] (human) [8] is reported as “no binding”.

B5: MBP::UNC-16[1-120] (domain or fragment, UniProt P34609-1 1-120)
chain: MACNLSPVNEMADSITSSTPSEIVYGGPGSPDEHRTMSDKVQTMASAIYRELETMIKVHGEDGVKTLMPLVVNVLEALDLAYLERDEQTAELEMLKEDNEQLQTQYEREKALRKQTEQKY
For the molecule B5, the binding entry in assay [9] and in [10] was “binds” throughout.

B6: MBP::UNC-16[1-120] V72Q (domain or fragment, UniProt P34609-1 1-120)
chain: B5 chain with V72Q
Regarding B6, the binding result is “binds” in [9] and “no binding” in [10].
